Measurements as given in paper PMC7072349.
No constants are given. Whether binding was seen depends on the method and setting. Binding seen in cells or lysates may run through a third protein. Some results given as binding are weak or reduced against the parent protein; the word gives no strength. Where a sequence is shown, tags or fusion partners need not be part of it.

Biological target: T1, WT panx1a-dTomato-His (Danio rerio (zebrafish)) (UniProt Q7ZUN0)
T1 sequence: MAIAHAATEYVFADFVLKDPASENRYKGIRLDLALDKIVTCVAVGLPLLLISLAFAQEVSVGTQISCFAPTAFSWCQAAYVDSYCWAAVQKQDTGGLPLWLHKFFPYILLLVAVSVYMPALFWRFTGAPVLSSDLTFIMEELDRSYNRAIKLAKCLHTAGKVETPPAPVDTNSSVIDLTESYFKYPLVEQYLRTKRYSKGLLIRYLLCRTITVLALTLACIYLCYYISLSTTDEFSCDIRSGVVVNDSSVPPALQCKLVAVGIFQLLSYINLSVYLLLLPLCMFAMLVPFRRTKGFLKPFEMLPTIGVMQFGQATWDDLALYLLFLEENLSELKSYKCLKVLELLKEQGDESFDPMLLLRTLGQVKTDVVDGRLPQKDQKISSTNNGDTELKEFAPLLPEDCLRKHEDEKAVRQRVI
Assay: pull-down; His60 Ni gravity column; native lysates of double-transfected Neuro 2a cells loaded and rocked at 4 °C for 1 h; His-tagged dTomato fusion held on the column; eluates blotted with anti-GFP and anti-His

B1: WT panx1a-EYFP (Danio rerio pannexin 1a, wild type, EYFP-tagged) (protein, UniProt Q7ZUN0 1-417)
chain: T1 sequence
binding: binds
